The other results are listed elsewhere or left out.
Compound: C1CCN(C1)C(=O)NC2=CC=CC(=C2)NC3=NC=C(C(=N3)NCCC4=CN=CN4)Br
Test: log2 fold change, soluble protein after heating vs DMSO (PISA); higher = thermal stabilisation; K562 cells, 10 uM, 30 min; active = over 0.2 and 3.5 SD of the protein, either way, in both replicates (recomputed)
Summary of the method: (§1)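 Aliquots of K562 cells (2×10^6 cells/mL) treated with 10 μM compound for 30 min were heated for 3 min over 48°C-58°C. After pooling and extraction in PBS with 0.5% NP-40 at 4°C, soluble protein from a 21,000xg, 90 min spin was quantified by TMTpro 16plex LC-MS/MS with channel sums equalised. Thermal stability is expressed against control samples, from duplicates, as a log2 fold change.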

Chains of the proteins cited; added tags and fusions are not shown. Lines headed by an entry give the natural chain unless they say otherwise; changes in a name come on top.
UniProt P46734: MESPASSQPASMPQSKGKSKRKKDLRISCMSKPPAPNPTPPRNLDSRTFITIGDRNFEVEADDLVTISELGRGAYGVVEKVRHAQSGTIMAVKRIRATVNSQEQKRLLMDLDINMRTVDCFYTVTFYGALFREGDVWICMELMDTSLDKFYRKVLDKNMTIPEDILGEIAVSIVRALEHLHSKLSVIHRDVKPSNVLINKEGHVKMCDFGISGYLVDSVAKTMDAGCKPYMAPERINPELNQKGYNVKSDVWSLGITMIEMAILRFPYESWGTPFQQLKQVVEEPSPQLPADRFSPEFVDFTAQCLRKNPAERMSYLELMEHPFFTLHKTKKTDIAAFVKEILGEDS
UniProt Q14766: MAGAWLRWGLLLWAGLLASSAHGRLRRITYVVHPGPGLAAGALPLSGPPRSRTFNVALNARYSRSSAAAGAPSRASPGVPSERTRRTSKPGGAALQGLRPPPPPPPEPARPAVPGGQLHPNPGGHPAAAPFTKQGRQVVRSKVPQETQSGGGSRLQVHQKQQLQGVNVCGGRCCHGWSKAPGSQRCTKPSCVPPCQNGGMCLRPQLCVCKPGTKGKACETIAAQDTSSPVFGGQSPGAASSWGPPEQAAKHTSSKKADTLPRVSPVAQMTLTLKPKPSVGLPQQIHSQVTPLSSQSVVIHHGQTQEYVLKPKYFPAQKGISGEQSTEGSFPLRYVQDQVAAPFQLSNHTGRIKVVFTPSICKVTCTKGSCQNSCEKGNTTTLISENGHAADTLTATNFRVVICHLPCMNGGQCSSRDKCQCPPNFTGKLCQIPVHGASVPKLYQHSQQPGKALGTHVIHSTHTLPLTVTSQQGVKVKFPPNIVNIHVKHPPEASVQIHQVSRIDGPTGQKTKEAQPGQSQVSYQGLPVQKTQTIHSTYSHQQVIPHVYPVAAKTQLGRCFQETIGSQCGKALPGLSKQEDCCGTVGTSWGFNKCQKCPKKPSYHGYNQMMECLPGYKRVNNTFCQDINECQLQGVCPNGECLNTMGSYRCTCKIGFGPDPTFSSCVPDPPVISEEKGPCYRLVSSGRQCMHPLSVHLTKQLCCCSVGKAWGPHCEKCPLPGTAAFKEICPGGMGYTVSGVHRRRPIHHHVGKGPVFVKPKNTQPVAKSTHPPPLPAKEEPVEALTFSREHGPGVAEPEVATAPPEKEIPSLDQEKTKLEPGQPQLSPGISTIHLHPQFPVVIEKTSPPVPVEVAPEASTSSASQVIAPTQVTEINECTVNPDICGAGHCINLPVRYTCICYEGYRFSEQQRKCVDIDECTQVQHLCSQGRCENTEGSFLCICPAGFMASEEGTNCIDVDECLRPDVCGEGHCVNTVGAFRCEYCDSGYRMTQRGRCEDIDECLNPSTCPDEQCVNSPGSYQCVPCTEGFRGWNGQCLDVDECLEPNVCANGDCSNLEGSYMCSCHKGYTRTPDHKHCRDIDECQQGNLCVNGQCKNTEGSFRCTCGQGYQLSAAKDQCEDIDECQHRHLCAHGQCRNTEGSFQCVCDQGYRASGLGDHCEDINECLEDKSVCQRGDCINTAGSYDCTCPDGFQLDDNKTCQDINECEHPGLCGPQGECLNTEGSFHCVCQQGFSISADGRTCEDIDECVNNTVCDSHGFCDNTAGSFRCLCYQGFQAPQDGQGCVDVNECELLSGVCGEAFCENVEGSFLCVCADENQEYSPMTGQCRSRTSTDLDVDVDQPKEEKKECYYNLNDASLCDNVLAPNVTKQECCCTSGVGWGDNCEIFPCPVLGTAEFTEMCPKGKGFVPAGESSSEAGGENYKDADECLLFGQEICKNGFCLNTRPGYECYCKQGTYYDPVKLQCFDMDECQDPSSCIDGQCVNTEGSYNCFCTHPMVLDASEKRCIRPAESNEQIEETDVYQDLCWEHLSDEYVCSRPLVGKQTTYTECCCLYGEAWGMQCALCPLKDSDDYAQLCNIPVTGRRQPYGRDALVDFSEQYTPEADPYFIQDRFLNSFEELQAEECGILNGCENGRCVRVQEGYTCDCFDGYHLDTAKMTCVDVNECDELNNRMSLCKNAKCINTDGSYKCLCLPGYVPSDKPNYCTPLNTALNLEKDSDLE
UniProt P43362: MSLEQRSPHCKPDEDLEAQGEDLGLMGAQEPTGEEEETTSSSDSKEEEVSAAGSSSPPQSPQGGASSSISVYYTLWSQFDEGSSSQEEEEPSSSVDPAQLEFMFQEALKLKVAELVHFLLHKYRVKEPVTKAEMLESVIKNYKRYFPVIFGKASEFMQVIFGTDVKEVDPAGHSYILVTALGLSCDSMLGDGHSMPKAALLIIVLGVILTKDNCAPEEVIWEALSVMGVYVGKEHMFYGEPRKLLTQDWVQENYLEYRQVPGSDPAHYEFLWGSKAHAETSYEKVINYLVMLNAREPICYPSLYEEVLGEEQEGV
UniProt Q9NTJ4: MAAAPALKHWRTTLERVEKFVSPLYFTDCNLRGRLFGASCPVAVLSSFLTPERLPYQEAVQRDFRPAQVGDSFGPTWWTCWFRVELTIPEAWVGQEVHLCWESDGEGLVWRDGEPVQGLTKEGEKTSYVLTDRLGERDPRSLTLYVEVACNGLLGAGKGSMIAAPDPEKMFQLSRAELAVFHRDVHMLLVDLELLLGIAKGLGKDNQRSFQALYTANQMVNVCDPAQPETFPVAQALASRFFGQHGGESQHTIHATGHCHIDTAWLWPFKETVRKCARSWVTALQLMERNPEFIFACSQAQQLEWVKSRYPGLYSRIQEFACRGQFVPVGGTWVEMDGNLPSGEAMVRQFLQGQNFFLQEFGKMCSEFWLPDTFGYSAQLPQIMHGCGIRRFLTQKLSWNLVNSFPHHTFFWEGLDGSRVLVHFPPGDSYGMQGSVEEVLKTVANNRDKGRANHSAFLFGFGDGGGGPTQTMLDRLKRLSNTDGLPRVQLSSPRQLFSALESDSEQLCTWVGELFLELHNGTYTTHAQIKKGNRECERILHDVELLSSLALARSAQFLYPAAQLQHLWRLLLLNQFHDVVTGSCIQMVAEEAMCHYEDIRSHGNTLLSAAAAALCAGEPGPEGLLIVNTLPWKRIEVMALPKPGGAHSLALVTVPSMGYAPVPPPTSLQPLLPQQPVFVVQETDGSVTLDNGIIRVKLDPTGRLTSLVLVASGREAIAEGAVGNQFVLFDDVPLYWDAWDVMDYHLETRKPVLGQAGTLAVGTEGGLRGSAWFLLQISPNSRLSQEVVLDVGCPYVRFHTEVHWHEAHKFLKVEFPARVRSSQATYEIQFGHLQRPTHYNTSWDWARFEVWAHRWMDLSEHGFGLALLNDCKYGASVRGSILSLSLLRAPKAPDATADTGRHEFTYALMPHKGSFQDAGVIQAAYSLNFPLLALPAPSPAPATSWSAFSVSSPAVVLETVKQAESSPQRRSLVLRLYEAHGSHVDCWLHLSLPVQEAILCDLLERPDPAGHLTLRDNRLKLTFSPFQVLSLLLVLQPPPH
UniProt Q13257, whole entry, looked up: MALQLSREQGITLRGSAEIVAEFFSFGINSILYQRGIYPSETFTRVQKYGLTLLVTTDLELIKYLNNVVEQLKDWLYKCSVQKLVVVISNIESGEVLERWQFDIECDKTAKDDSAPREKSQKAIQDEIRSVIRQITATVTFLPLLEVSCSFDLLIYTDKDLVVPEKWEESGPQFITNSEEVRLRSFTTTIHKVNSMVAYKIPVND
UniProt O95372: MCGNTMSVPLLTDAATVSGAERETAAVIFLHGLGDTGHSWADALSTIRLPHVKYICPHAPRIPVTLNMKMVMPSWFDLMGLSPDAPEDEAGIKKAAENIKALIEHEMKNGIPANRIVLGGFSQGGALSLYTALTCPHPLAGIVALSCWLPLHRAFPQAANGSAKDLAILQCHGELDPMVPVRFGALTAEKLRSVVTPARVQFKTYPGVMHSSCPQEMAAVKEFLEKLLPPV
UniProt Q8ND56: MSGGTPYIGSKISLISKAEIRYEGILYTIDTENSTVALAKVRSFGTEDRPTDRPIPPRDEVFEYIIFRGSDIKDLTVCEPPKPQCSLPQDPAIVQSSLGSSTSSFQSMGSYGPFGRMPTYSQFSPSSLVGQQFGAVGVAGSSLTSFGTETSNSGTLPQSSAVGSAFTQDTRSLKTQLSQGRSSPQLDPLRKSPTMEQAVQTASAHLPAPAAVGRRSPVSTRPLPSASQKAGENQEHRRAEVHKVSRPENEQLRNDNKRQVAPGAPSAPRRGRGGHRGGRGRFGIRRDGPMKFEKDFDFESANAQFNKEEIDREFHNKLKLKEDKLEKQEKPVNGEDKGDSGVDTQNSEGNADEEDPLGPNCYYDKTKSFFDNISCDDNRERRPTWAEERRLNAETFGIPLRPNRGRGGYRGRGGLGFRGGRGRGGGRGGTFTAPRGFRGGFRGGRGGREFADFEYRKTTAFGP
UniProt Q9BQ69: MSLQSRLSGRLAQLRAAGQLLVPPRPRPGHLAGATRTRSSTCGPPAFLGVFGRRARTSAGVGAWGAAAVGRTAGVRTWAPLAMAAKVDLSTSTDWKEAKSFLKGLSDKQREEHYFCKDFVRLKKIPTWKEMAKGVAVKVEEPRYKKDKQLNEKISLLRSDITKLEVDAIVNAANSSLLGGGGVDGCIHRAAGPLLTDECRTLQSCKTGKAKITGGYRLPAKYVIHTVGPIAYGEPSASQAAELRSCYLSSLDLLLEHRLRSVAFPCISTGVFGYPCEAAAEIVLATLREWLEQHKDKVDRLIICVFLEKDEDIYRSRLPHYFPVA
UniProt P12980: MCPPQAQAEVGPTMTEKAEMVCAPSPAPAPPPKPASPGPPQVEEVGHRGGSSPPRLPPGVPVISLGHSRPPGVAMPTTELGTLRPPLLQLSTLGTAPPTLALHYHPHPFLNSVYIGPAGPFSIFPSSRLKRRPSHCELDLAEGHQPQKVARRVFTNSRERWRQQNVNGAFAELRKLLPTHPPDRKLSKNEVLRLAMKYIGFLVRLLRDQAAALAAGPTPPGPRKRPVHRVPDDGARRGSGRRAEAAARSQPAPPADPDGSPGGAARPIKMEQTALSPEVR
UniProt Q16706: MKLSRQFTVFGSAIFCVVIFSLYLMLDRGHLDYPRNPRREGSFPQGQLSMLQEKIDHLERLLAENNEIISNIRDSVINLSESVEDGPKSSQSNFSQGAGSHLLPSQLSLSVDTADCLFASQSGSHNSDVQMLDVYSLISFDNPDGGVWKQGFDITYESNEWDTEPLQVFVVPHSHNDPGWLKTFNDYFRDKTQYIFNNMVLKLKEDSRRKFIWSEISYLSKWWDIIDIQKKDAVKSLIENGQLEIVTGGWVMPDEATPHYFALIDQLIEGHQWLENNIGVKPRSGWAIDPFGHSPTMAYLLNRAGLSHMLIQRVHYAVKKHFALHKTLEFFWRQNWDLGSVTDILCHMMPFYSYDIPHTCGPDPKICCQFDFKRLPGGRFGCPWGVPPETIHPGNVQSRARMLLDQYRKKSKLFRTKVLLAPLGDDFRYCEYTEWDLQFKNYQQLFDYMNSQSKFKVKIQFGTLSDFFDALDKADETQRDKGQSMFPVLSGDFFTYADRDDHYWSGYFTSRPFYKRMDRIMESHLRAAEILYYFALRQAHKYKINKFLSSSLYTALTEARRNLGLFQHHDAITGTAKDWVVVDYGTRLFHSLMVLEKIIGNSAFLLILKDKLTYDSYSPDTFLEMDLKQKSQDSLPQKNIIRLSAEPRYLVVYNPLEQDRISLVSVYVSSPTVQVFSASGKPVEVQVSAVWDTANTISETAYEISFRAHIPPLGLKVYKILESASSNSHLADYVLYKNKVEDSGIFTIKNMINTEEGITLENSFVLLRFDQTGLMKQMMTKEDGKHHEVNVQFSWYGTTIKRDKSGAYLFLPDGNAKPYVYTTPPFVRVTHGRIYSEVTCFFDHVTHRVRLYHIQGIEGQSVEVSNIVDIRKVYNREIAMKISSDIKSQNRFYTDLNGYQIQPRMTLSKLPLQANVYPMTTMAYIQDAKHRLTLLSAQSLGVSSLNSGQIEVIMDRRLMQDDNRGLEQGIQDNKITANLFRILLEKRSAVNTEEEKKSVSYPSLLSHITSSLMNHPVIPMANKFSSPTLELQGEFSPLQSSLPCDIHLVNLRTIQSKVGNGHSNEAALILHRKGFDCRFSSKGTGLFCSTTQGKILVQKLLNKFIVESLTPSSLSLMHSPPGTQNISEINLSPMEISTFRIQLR
UniProt Q9HD34: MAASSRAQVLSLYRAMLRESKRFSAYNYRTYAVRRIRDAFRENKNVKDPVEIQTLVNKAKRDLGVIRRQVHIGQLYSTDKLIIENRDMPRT
UniProt Q9NQ29: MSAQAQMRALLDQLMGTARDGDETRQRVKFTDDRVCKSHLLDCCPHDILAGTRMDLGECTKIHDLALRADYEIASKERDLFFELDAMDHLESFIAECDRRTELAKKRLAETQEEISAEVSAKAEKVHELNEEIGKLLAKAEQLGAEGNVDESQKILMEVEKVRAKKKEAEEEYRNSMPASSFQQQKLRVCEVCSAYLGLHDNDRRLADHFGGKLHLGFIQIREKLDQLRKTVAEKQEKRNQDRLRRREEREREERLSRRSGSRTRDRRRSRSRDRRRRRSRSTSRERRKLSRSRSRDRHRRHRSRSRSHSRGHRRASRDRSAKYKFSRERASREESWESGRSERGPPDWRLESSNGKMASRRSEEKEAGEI

log2 fold change, inactive:
MAP4 (UniProt E7EVA0) 0.034, MAPK12 (UniProt P53778) 0.087, M6PR (UniProt P20645) -0.006, LRSAM1 (UniProt Q6UWE0) -0.077, LSM6 (UniProt P62312) 0.021, MAN1A2 (UniProt O60476) 0.017, MAP2K3 isoform 3 (UniProt P46734) 0.016, MARCHF6 (UniProt O60337) -0.033, LTBP1 isoform 4 (UniProt Q14766) 0.07, LRRFIP1 (UniProt Q32MZ4) 0.056, MAGEA9 (UniProt P43362) -0.191, MAK16 (UniProt Q9BXY0) 0.024, LYZ (UniProt P61626) -0.026, MAN2C1 isoform 4 (UniProt Q9NTJ4) -0.025, MAP7D1 (UniProt Q3KQU3) 0.005, MAD2L1 (UniProt Q13257) 0.01, MARCKSL1 (UniProt P49006) -0.005, LYPLA2 (UniProt O95372) -0.084, MADD isoform 2 (UniProt Q8WXG6) 0.012, MAPRE3 (UniProt Q9UPY8) 0.035, LSM14A isoform 2 (UniProt Q8ND56) 0.031, MAGEB2 (UniProt O15479) 0.191, MACROD1 (UniProt Q9BQ69) -0.059, LYPLAL1 (UniProt Q5VWZ2) -0.006, MAP1B (UniProt P46821) -0.031, LYL1 (UniProt P12980) -0.144, MACF1 (UniProt Q9UPN3) -0.066, MAN2A1 (UniProt Q16706) 0.001, MARCHF5 (UniProt Q9NX47) -0.026, LYRM4 (UniProt Q9HD34) 0.043, LYRM7 (UniProt Q5U5X0) -0.03, MAPKAPK5 (UniProt Q8IW41) -0.033, LUC7L (UniProt Q9NQ29) -0.016

Compound: C1CN(CCC1(CC2=CC=C(C=C2)Cl)N)C3=NC=NC4=C3C=CN4
Test: as above
Summary of the method: as §1

log2 fold change, inactive:
MAP4 (UniProt E7EVA0) -0.053, MAPK12 (UniProt P53778) 0.024, M6PR (UniProt P20645) 0.048, LRSAM1 (UniProt Q6UWE0) -0.031, LSM6 (UniProt P62312) 0.059, MAN1A2 (UniProt O60476) -0.003, MAP2K3 isoform 3 (UniProt P46734) -0.006, MARCHF6 (UniProt O60337) 0.018, LTBP1 isoform 4 (UniProt Q14766) 0.354, LRRFIP1 (UniProt Q32MZ4) 0.041, MAGEA9 (UniProt P43362) 0.018, MAK16 (UniProt Q9BXY0) -0.011, LYZ (UniProt P61626) -0.024, MAN2C1 isoform 4 (UniProt Q9NTJ4) 0.162, MAP7D1 (UniProt Q3KQU3) -0.084, MAD2L1 (UniProt Q13257) -0.032, MARCKSL1 (UniProt P49006) 0.039, LYPLA2 (UniProt O95372) -0.122, MADD isoform 2 (UniProt Q8WXG6) -0.041, MAPRE3 (UniProt Q9UPY8) -0.01, LSM14A isoform 2 (UniProt Q8ND56) -0.086, MAGEB2 (UniProt O15479) 0.205, MACROD1 (UniProt Q9BQ69) 0.069, LYPLAL1 (UniProt Q5VWZ2) 0.006, MAP1B (UniProt P46821) -0.044, LYL1 (UniProt P12980) -0.132, MACF1 (UniProt Q9UPN3) -0.095, MAN2A1 (UniProt Q16706) 0.019, MARCHF5 (UniProt Q9NX47) 0.056, LYRM4 (UniProt Q9HD34) -0.01, LYRM7 (UniProt Q5U5X0) -0.018, MAPKAPK5 (UniProt Q8IW41) 0.012, LUC7L (UniProt Q9NQ29) -0.035

Reference: the supplement of paper PMC10849652
